These results are taken from PubChem BioAssay AID2685 (National Center for Advancing Translational Sciences (NCATS), 2010).

This is one part of the list. Further columns of the screen follow, without active or inactive calls. The list favours compounds with an active or inconclusive main result. Words in brackets tell the shape of the fitted curve; partial curves, single points and poor fits give uncertain potencies.

This experiment is described as follows: qHTS Assay for Lipid Storage Modulators in Drosophila S3 Cells.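 As to cell number change: cells counted by Cell Tracker Red CMTPX staining in the red channel.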 The conditions noted are these: BODIPY lipid droplet fluorescence, 18-24 h; for cell number change: measured here: cell count max response, cells fed with added oleic acid. The essentials: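 Drosophila S3 cells loaded with oleic acid (400 uM, as added) and compounds at several concentrations; lipid droplets imaged by 488-nm laser-scanning cytometry, 500–530 nm intensity and object ratio to cell channel. Percent activity normalized to 20 uM Triacsin C.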

The mark [1] stands for this setting: measured here: cell number channel AC50, cells fed with added oleic acid.
Where [2] appears, read: measured here: lipid fluorescence (Fed channel) AC50, cells fed with added oleic acid.

Consider `O=C(c1ccncc1)N(c1ccc2oc3c(c2c1)CCCC3)S(=O)(=O)c1ccc(F)cc1`, for which the cell number change is 34.8%. The concentration at half-maximal activity (AC50) under setting [1] was 11.6 µM [rising, partial curve]. Moreover, the AC50 under setting [2] was 11.6 µM [rising, partial curve].

`CCN(CC(=O)Nc1ccccc1C(F)(F)F)C(=O)c1cc(S(=O)(=O)N2CCCCCC2)ccc1OC`: the cell number change was -75%. Besides, the AC50 under setting [1] was 29.1 µM [falling, partial curve, poor fit]. Further, the AC50 under setting [2] was 8.2 µM [falling, partial curve].

`CCOc1ccc(S(=O)(=O)N2CCCC(C(=O)N3CCC(C(N)=O)CC3)C2)cc1Cl` (stereo unspecified): the cell number change was determined as 14.5%. In addition, the AC50 under setting [2] is 6.31 µM [rising, single point].

Turning to `CN(CC(=O)Nc1ccc(F)c(F)c1F)C(=O)C1=COCCO1`, the cell number change is -10.4%.

With `CN(CC(=O)Nc1ccc(Cl)cc1)C(=O)c1ccc(N2CCCC2=O)cc1`, the cell number change came to 13.7%. Moreover, the AC50 under setting [2] is 29.1 µM [rising, single point].

`Cc1cc(OCC(=O)N(C)Cc2ccccc2)cc(C)c1Cl`: the cell number change was -34.9%. For the same compound, the AC50 under setting [1] is 16.4 µM [falling, single point].

For `c1ccc(-c2nc3nonc3nc2-c2ccccc2)cc1`, the cell number change is -8.47%. Further, the AC50 under setting [2] was 18.4 µM [falling, single point].

Take `O=C(Nc1ccc(C(=O)N2CCCCC2)cc1)c1cccs1`: the cell number change stood at 5.41%.

With `C=CCNCC(=O)Nc1sc2c(c1C(=O)Nc1ccc(OC)cc1OC)CCC2`, the cell number change worked out at 133%. Also, under setting [2], the AC50 is 0.651 µM [rising, single point].

In the case of `Cc1cc(O)c2c(CN3CCN(Cc4ccccc4)CC3)cc(=O)oc2c1`, the cell number change turned out to be 77.5%. For the same compound, the concentration at half-maximal activity (AC50) under setting [1] is 16.4 µM [rising, partial curve]. Moreover, the concentration at half-maximal activity (AC50) under setting [2] is 29.1 µM [rising, single point].

As to `COc1ccc(S(=O)(=O)N2CCCCC2)cc1NC(=S)Nc1cccc(Cl)c1C`, the AC50 under setting [2] is 0.651 µM [rising, full curve, poor fit].

On to `COc1cccc(NC(=O)CN2CCCCCC2)c1`, for which the cell number change is -4.4%. Also, the AC50 under setting [2] was 0.731 µM [rising, single point].

Turning to `CCCc1cc(N2CCCC(C(=O)Nc3c(OC)cccc3OC)C2)n2ncnc2n1` (stereo unspecified), the cell number change is 9.72%. Moreover, the concentration at half-maximal activity (AC50) under setting [2] is 0.461 µM [falling, partial curve, poor fit].

`Cn1c(N)c(C(=O)CSc2nnc(-c3cccs3)n2C2CC2)c(=O)[nH]c1=O`: the cell number change was 12%.

Take `CCOc1ccc(Nc2nc(Cl)nc(NCCO)n2)cc1`: the cell number change stood at 15.1%. In addition, under setting [2], the AC50 was 1.16 µM [falling, single point].

As for `Nc1c(C(=O)N2CCCC2)sc2nc(-c3ccccc3)ccc12`, the cell number change was -25%. Further, the half-maximal activity concentration (AC50) under setting [2] was 16.4 µM [falling, single point].

For `COc1cccc(C(=O)NNC(=O)c2ccccc2-n2cccc2)c1`, the cell number change is -12.9%.

With `Cc1cc(C)cc(OCc2ccc(C(=O)NN)o2)c1`, the cell number change was 12.5%. For the same compound, the AC50 under setting [2] was 1.16 µM [rising, full curve, poor fit].

In the case of `Cn1nc(C(=O)NCc2ccc(F)cc2)c2ccccc2c1=O`, the cell number change was -0.845%. Moreover, the AC50 under setting [2] was 0.326 µM [rising, full curve, poor fit].

For the compound `O=C(N/N=C/c1ccc(O)c2ccccc12)c1cccnc1`, the cell number change was -7.66%.

As for `Cc1ccc(NC(=O)CN(C)S(=O)(=O)c2cnc[nH]2)c(C)c1`, the cell number change was -12.4%. Besides, the AC50 under setting [2] was 14.6 µM [falling, single point].

As for `Cc1ccc(CCNC(=O)CCn2ccc3cc(S(=O)(=O)N4CCCC4)ccc32)cc1`, the cell number change amounted to 21.2%.

As for `Nc1ccc(NC(=S)Nc2ccccc2)cc1`, the cell number change was 10.6%. Besides, the AC50 under setting [2] is 6.51 µM [falling, single point].

On to `CCOC(=O)c1cccc(NC(=O)CSc2nc3ccccc3c(=O)n2CCOC)c1`, for which the cell number change is -44.4%. In addition, the AC50 under setting [1] was 29.1 µM [falling, single point]. For the same compound, the AC50 under setting [2] is 23.1 µM [falling, single point].

With `CCc1noc(C)c1C(=O)Nc1ccc(C(F)(F)F)cc1`, the cell number change is 19.6%. Besides, under setting [2], the AC50 was 29.1 µM [rising, single point].

With `CC(=O)Nc1ccc(N=Cc2nc(-c3ccc(C)cc3)oc2O)cc1`, the AC50 under setting [2] was 0.58 µM [rising, single point].

Regarding `NS(=O)(=O)c1ccc(CNC(=O)Cc2cccs2)cc1`, the cell number change was found to be 10.6%. In addition, under setting [2], the AC50 is 6.51 µM [rising, single point].

Regarding `CCc1cc(C(=O)N2CCN(c3ncc(C(F)(F)F)cc3Cl)CC2)sc1C`, the cell number change amounted to 48.7%. Moreover, the concentration at half-maximal activity (AC50) under setting [1] is 20.6 µM [rising, single point].

As to `CCOc1ccc(C(=O)COC(=O)C2CCN(c3ccc(C(F)(F)F)cn3)CC2)cc1`, the cell number change amounted to 5.16%. Further, under setting [1], the AC50 is 0.411 µM [falling, full curve]. In addition, the half-maximal activity concentration (AC50) under setting [2] is 0.461 µM [falling, full curve].

On to `Cc1ccc(OC(=O)c2ccc(C)c([N+](=O)[O-])c2)cn1`, for which the cell number change was determined as 26.2%.

For the compound `O=C(N/N=C/c1ccc([N+](=O)[O-])o1)c1ccc(O)cc1`, the cell number change is -58.7%. Moreover, the AC50 under setting [1] is 20.6 µM [falling, single point]. Further, under setting [2], the AC50 was 18.4 µM [falling, single point].

In the case of `CCCn1c(SCC(=O)N2CCc3ccccc32)nnc1-c1ccncc1`, the cell number change is -3.73%. For the same compound, under setting [1], the AC50 was 0.0058 µM [falling, full curve, poor fit].

As for `O=C(COC(=O)CN1C(=O)C2CCCCC2C1=O)Nc1cc(S(=O)(=O)N2CCOCC2)ccc1Cl` (stereo unspecified), the cell number change was -0.59%. The half-maximal activity concentration (AC50) under setting [2] is 4.11 µM [falling, full curve].

As for `Cn1nc(-c2ccc(Cl)cc2)nc2c(=O)n(C)c(=O)nc1-2`, the cell number change was -70.8%. Also, the AC50 under setting [1] was 11.6 µM [falling, partial curve]. Besides, the AC50 under setting [2] is 10.3 µM [falling, partial curve].

As to `COc1ccc(C2(C)NC(=O)N(CC(=O)c3ccc4c(c3)OCO4)C2=O)cc1` (stereo unspecified), the cell number change was 10.4%.

In the case of `COc1ccc(-c2nc3ccc(C(=O)NCCCN4CCOCC4)cc3nc2-c2ccc(OC)cc2)cc1`, the cell number change came out at 10.1%. In addition, under setting [2], the concentration at half-maximal activity (AC50) is 2.59 µM [falling, full curve, poor fit].

For `Cc1cc(C(=O)OC(C)C(=O)Nc2nc(-c3ccccc3)cs2)c(C)o1` (stereo unspecified), the cell number change was -36.9%. Besides, under setting [1], the AC50 was 32.6 µM [falling, partial curve, poor fit]. Besides, under setting [2], the half-maximal activity concentration (AC50) was 0.0651 µM [falling, full curve, poor fit].

Turning to `C/C(=N/Nc1ccc([N+](=O)[O-])cc1)c1c[nH]c2ccccc12`, under setting [2], the AC50 was 9.2 µM [falling, single point].

In the case of `CC(=O)Nc1nc(C(=O)O)cs1`, the cell number change is -36.8%. Also, the AC50 under setting [1] was 32.6 µM [falling, single point].

On to `Cc1sc2c(c1C)c(=O)n(-c1ccc(F)cc1)c(=O)n2CC(=O)NCc1ccco1`, for which the cell number change came to 26.7%. Besides, the AC50 under setting [2] is 29.1 µM [rising, single point].

In the case of `CC(CCc1ccccc1)NC(=O)CCNC(=O)Cn1ccc2ccccc2c1=O` (stereo unspecified), the cell number change was 51.8%. In addition, the AC50 under setting [1] was 32.6 µM [rising, single point].

Turning to `COc1ccc(C(=O)N2CC(=O)N(CCc3ccccc3)C(=O)C2)cc1OC`, the cell number change turned out to be 27%. In addition, the AC50 under setting [2] is 8.2 µM [rising, partial curve].

Regarding `COc1ccccc1Oc1ccc(N/C=C2/CCCC2=O)cc1`, the AC50 under setting [2] was 6.51 µM [rising, single point].

Consider `Cc1ccc(S(=O)(=O)N2CCN(C(=O)c3ccccc3)CC2)cc1`, for which the cell number change is -2.63%.

As to `O=C(N/N=C/c1cc(Cl)ccc1O)c1ccc(Br)cc1`, the cell number change was 55.4%. For the same compound, under setting [1], the AC50 is 4.11 µM [rising, full curve, poor fit].

Take `O=C(NCc1cccc(F)c1)C1CCN(S(=O)(=O)Cc2ccccc2)CC1`: the cell number change is 4.78%. Moreover, the concentration at half-maximal activity (AC50) under setting [2] is 29.1 µM [rising, single point].

On to `CCOc1ccc(-c2cn3ccccc3n2)cc1[N+](=O)[O-]`, for which the cell number change is 4.87%. Moreover, the AC50 under setting [2] is 6.51 µM [rising, single point].

Take `Cc1ccc(NC(=O)CN2C(=O)S/C(=C\c3cccn3C)C2=O)cc1`: the cell number change worked out at 4.02%.

Regarding `O=C(O)CSc1c(O)c2ccccc2[nH]c1=O`, the cell number change is -32.5%.

`CCCCOc1ccc(-c2nnn(CC(=O)NCCc3c[nH]c4ccccc34)n2)cc1`: the cell number change was -11.6%. For the same compound, the AC50 under setting [1] is 1.84 µM [rising, partial curve]. Moreover, the AC50 under setting [2] is 2.06 µM [rising, partial curve].

For `O=C1C2CC=C(Cl)CC2C(=O)N1CNc1ccccn1` (stereo unspecified), the cell number change was -9.37%. Under setting [2], the AC50 is 25.9 µM [falling, partial curve].

On to `NC(=O)c1ccc(NC(=O)COC(=O)c2ccc(Cl)nc2)cc1`, for which the cell number change is -18.9%. Under setting [2], the AC50 is 6.51 µM [rising, partial curve, poor fit].

In the case of `CSc1nsc(SCC(=O)Nc2cc(C(=O)O)ccc2C)n1`, the cell number change was -10.9%. Moreover, the AC50 under setting [2] is 0.164 µM [falling, full curve].

As for `CCOC(=O)c1ccn(-c2nc(-c3ccco3)cc(C(F)(F)F)n2)n1`, the cell number change is -13.4%. Further, the AC50 under setting [2] is 3.66 µM [rising, single point].

Turning to `O=C(NC1CCCc2ccccc21)c1ccc(Cl)nc1` (stereo unspecified), the cell number change turned out to be 0.694%.

For `CCOC(=O)N1CCN(C(=O)CNC(=O)c2ccc(Br)o2)CC1`, the cell number change was 18.9%.

As for `NS(=O)(=O)c1ccc(NC(=O)COC(=O)c2c3c(nc4ccccc24)/C(=C\c2ccc4c(c2)OCO4)CCC3)cc1`, the cell number change was -29.6%. The concentration at half-maximal activity (AC50) under setting [1] is 2.06 µM [rising, partial curve]. In addition, the AC50 under setting [2] was 29.1 µM [falling, single point].

On to `C=CCN(c1ccccc1)S(=O)(=O)c1ccc(Cl)c(C(=O)OCC(=O)N(C)C2CCS(=O)(=O)C2)c1` (stereo unspecified), for which the cell number change is -24.6%. In addition, the AC50 under setting [1] is 0.92 µM [rising, partial curve].

In the case of `Cc1ccc(C23CC4CC(CC(C(=O)NCC(=O)O)(C4)C2)C3)cc1`, under setting [2], the AC50 is 29.1 µM [rising, single point].

Consider `COc1cc(C(=O)OCC(C)=O)c([N+](=O)[O-])cc1OC`, for which the cell number change was found to be 18.4%. Also, the AC50 under setting [2] was 5.17 µM [falling, single point].

As for `CCOC(=O)[C@H]1[C@H]2COc3ccc(OC)cc3[C@@H]2N2C(=O)c3cc(OC)ccc3NC(=O)[C@@]12C`, the cell number change was -29.6%. Moreover, under setting [2], the AC50 was 0.731 µM [rising, full curve, poor fit].

With `COCCNC(=O)c1c[nH]c2ccc(S(=O)(=O)N3CCOCC3)cc2c1=O`, the cell number change turned out to be 10.9%. For the same compound, under setting [2], the AC50 is 14.6 µM [falling, single point].
